Experimental data taken from publication PMC8748641.
These are yes or no findings as the source states them, for the method shown. For some of these results: Binding seen in cells or lysates may run through a third protein. Some entries that bind do so weakly or less than the wild type. Tags and fused reporters may be left off the sequences shown.

T1: MSCS-LIKE 8 (MSL8) fused to the C-terminal half of yeast ubiquitin (MSL8-Cub) (Arabidopsis thaliana) (UniProt F4IME2)
T1 sequence: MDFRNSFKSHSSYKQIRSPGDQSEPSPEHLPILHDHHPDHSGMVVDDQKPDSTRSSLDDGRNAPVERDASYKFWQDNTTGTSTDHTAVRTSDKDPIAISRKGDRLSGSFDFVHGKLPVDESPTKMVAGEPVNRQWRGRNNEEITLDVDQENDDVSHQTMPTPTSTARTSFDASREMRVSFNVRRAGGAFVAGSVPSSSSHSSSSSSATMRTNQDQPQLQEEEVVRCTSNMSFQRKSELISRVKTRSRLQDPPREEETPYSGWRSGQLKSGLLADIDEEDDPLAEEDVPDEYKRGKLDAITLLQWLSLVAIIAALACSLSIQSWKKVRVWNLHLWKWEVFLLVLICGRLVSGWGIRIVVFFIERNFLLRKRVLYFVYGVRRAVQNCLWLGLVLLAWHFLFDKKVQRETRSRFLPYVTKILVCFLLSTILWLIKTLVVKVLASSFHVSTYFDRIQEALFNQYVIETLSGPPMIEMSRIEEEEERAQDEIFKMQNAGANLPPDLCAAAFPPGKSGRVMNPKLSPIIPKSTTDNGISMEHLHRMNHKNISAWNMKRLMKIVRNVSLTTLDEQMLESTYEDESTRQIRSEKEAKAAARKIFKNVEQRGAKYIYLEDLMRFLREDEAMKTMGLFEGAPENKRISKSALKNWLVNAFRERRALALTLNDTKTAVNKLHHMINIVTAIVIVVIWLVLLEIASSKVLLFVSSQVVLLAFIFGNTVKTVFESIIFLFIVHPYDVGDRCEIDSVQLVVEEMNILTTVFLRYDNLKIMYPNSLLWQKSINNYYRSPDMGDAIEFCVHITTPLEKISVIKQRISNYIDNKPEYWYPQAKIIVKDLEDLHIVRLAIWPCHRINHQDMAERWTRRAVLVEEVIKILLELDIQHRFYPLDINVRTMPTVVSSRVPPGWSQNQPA

T2: GFP-SYP72 (pSYP72:GFP-SYP72, Arabidopsis pollen) (Arabidopsis thaliana) (UniProt Q94KK6)
T2 sequence: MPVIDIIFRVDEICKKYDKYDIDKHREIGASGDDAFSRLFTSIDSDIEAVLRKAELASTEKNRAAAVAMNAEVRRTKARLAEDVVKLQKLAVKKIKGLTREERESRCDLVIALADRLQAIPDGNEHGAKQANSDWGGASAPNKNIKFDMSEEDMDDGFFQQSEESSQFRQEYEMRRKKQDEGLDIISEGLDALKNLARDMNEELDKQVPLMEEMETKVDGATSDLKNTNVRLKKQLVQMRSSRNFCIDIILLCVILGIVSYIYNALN

T3: GFP-SYP72 (35S:GFP-SYP72, N. benthamiana leaves) (Arabidopsis thaliana) (UniProt Q94KK6)
T3 sequence: T2 sequence

B1: SYNTAXIN OF PLANTS 72 (SYP72) fused to the N-terminal half of yeast ubiquitin NubG (NubG-SYP72) (protein, UniProt Q94KK6 1-267)
chain: T2 sequence
B2: MSL8-6×Myc (LAT52:MSL8-6×Myc, Arabidopsis pollen) (protein, UniProt F4IME2 1-908)
chain: T1 sequence
B3: MSL8-6×Myc (35S:MSL8-6×Myc, N. benthamiana leaves) (protein, UniProt F4IME2 1-908)
chain: T1 sequence
B4: Qc-SNARE SYP52 fused to NubG (protein, UniProt Q94KK7 1-233)
chain: MASSSDPWMREYNEALKLSEDINGMMSERNASGLTGPDAQRRASAIRRKITILGTRLDSLQSLLVKVPGKQHVSEKEMNRRKDMVGNLRSKTNQVASALNMSNFANRDSLFGTDLKPDDAINRVSGMDNQGIVVFQRQVMREQDEGLEKLEETVMSTKHIALAVNEELTLQTRLIDDLDYDVDITDSRLRRVQKSLALMNKSMKSGCSCMSMLLSVLGIVGLALVIWLLVKYL

Assays:
[1] = molecular target: T1, MSCS-LIKE 8 (MSL8) fused to the C-terminal half of yeast ubiquitin (MSL8-Cub) (Arabidopsis thaliana); test: two-hybrid; split-ubiquitin (dual-membrane) yeast two-hybrid; MSL8-Cub as bait, NubG fusions as prey; growth assay (Dualsystem Biotech)
[2] = molecular target: T2, GFP-SYP72 (pSYP72:GFP-SYP72, Arabidopsis pollen) (Arabidopsis thaliana); test: co-IP; GFP-trap on extracts of Arabidopsis flower buds containing mature pollen that express both proteins; 0.1 M Tris-HCl pH 7.4, 150 mM NaCl, 0.5% NP-40; blot with anti-Myc
[3] = molecular target: T3, GFP-SYP72 (35S:GFP-SYP72, N. benthamiana leaves) (Arabidopsis thaliana); test: co-IP; GFP-trap on total protein of N. benthamiana leaves transiently coexpressing both proteins; 0.1 M Tris-HCl pH 7.4, 150 mM NaCl, 0.5% NP-40; blot with anti-Myc

Binder | binding [1] | other results
B1 | binds | –
B2 | – | binding [2]: binds
B3 | – | binding [3]: binds
B4 | no binding | –
